Data as given in the supplement of paper PMC8960247.

Tested on: 621-102 (TSC2-deficient)
Assay: relative viability vs DMSO (fraction); higher = less cytotoxic
Conditions: serum: 0.1% FBS, 72 h

| SMILES | relative viability (0.0128 nM) | relative viability (0.064 nM) | relative viability (0.32 nM) | relative viability (1.6 nM) | relative viability (8 nM) | relative viability (40 nM) | relative viability (200 nM) | relative viability (1000 nM) | relative viability (5000 nM) |
| --- | --- | --- | --- | --- | --- | --- | --- | --- | --- |
| C=CC(=O)N1CCC[C@@H](n2nc(-c3ccc(Oc4ccccc4)cc3)c3c(N)ncnc32)C1 | 0.918 | 0.931 | 0.758 | 0.875 | 0.728 | 0.755 | 0.732 | 0.643 | 0.272 |
| CC(=O)Nc1cccc(-n2c(=O)n(C3CC3)c(=O)c3c(Nc4ccc(I)cc4F)n(C)c(=O)c(C)c32)c1 | 0.812 | 0.821 | 0.828 | 0.845 | 0.812 | 0.689 | 0.513 | 0.271 | 0.11 |
| CC(=O)c1c(C)c2cnc(Nc3ccc(N4CCNCC4)cn3)nc2n(C2CCCC2)c1=O | 0.896 | 0.833 | 0.872 | 0.813 | 0.743 | 0.843 | 0.706 | 0.706 | 0.0837 |
| CC(C)(C)Cn1c(N)nc2ccc(-c3[nH]c(C(C)(C)C)nc3-c3ccc(F)cc3)nc21 | 1.08 | 1.07 | 1.06 | 1.09 | 0.988 | 0.984 | 0.935 | 0.951 | 0.743 |
| CC1(C)C(=O)N(CCN2CCC(C(=O)c3ccc(F)cc3)CC2)c2ccccc21 | 0.811 | 0.867 | 0.935 | 0.814 | 0.783 | 0.841 | 0.813 | 0.675 | 0.537 |
| CC1(COc2ccc3c(c2)ncn3-c2ccc3cccc(N4CCC(N)CC4)c3n2)COC1 | 0.843 | 0.979 | 0.999 | 0.89 | 0.576 | 0.699 | 0.671 | 0.613 | 0.012 |
| CC1=C(C(=O)Nc2cc3cn[nH]c3cc2F)C(c2ccc(C(F)(F)F)cc2)CC(=O)N1 (stereo not given) | 0.834 | 0.734 | 0.819 | 0.712 | 0.647 | 0.733 | 0.75 | 0.663 | 0.509 |
| CN(C)C(=O)[C@H](O)[C@H](Cc1ccccc1)NC(=O)c1cc2cc(Cl)ccc2[nH]1 | 0.635 | 0.692 | 0.65 | 0.635 | 0.727 | 0.699 | 0.741 | 0.728 | 0.892 |
| CN(C)Cc1ccc(-c2nc3cccc4c3n2CCNC4=O)cc1 | 0.975 | 0.901 | 0.827 | 0.806 | 0.702 | 0.777 | 0.804 | 0.773 | 0.624 |
| CN(C)c1ccc(-c2nc3ncc(Cl)c(N4CCN(CC(=O)Nc5nccs5)CC4)c3[nH]2)cc1 | 0.927 | 0.956 | 0.965 | 1.03 | 0.888 | 0.874 | 0.752 | 0.343 | 0.0109 |
| CN1CCN(c2ccc([N+](=O)[O-])c3no[n+]([O-])c23)CC1 | 0.816 | 0.877 | 0.879 | 0.877 | 0.809 | 0.712 | 0.732 | 0.175 | 0.598 |
| CNCc1ccc(-c2[nH]c3cc(F)cc4c3c2CCNC4=O)cc1 | 0.716 | 0.701 | 0.762 | 0.742 | 0.717 | 0.769 | 0.636 | 0.645 | 0.332 |
| COCC(=O)NC/C=C/c1ccc2ncnc(Nc3ccc(Oc4ccc(C)nc4)c(C)c3)c2c1 | 0.959 | 0.94 | 0.912 | 0.692 | 0.817 | 0.754 | 0.78 | 0.76 | 0.627 |
| COc1cc(OC)c(/C=C/S(=O)(=O)Cc2ccc(OC)c(NCC(=O)O)c2)c(OC)c1 | 1.05 | 1.08 | 1.01 | 1.03 | 1 | 0.938 | 0.848 | 0.6 | 0.48 |
| COc1cc2c(Oc3ccc(NC(=O)C4(C(=O)Nc5ccc(F)cc5)CC4)cc3F)ccnc2cc1OCCCN1CCOCC1 | 0.997 | 0.976 | 0.966 | 0.899 | 0.977 | 0.918 | 0.0323 | 0.0145 | 0.00974 |
| COc1cc2ncnc(-n3nc(-c4ccccn4)nc3N)c2cc1OC | 0.763 | 0.922 | 0.947 | 0.333 | 0.867 | 0.682 | 0.86 | 0.779 | 0.693 |
| COc1cc2ncnc(Nc3cccc(Br)c3)c2cc1OC | 0.714 | 0.831 | 0.916 | 0.826 | 0.861 | 0.874 | 0.874 | 0.781 | 0.142 |
| COc1ccc(-c2cc3c(C)nc(N)nc3n([C@H]3CC[C@H](OCCO)CC3)c2=O)cn1 | 0.211 | 0.891 | 2.08 | 1.96 | 1.88 | 0.338 | 1.62 | 0.124 | 0.122 |
| COc1ccc(-c2ccc3c(N4CCOCC4)nc(N4C[C@@H](C)O[C@@H](C)C4)nc3n2)cc1CO | 0.718 | 0.806 | 0.711 | 0.839 | 0.845 | 0.818 | 0.79 | 0.854 | 0.651 |
| COc1cccc(-c2cc(=O)c3ccccc3o2)c1N | 0.837 | 0.865 | 0.789 | 0.842 | 0.775 | 0.74 | 0.737 | 0.593 | 0.555 |
| COc1cccc(Nc2c(C(N)=O)cnc3c(C)cc(S(=O)(=O)c4cccc(C(=O)N(C)C)c4)cc23)c1 | 0.738 | 0.773 | 0.79 | 0.819 | 0.787 | 0.706 | 0.765 | 0.82 | 0.827 |
| COc1ncc(-c2ccc3nccc(-c4ccnnc4)c3c2)cc1NS(=O)(=O)c1ccc(F)cc1F | 0.9 | 0.824 | 0.861 | 0.844 | 0.864 | 0.762 | 0.643 | 0.375 | 0.226 |
| CS(=O)(=O)CCNCc1ccc(-c2ccc3ncnc(Nc4ccc(OCc5cccc(F)c5)c(Cl)c4)c3c2)o1 | 0.831 | 0.729 | 0.362 | 0.881 | 0.753 | 0.166 | 0.749 | 0.103 | 0.0205 |
| C[C@@H](Oc1cc(-c2cnn(C3CCNCC3)c2)cnc1N)c1c(Cl)ccc(F)c1Cl | 0.83 | 0.894 | 0.83 | 0.859 | 0.474 | 0.749 | 0.766 | 0.333 | 0.0346 |
| C[C@@H](Oc1cc(-n2cnc3ccc(CN4CCN(C)CC4)cc32)sc1C(N)=O)c1ccccc1C(F)(F)F | 0.808 | 0.692 | 0.802 | 0.82 | 0.449 | 0.0133 | 0.0101 | 0.00948 | 0.0171 |

Looked up by compound from the entries so far (four):

| SMILES | relative viability (0.0128 nM) | relative viability (0.064 nM) | relative viability (0.32 nM) | relative viability (1.6 nM) | relative viability (8 nM) | relative viability (40 nM) | relative viability (200 nM) | relative viability (1000 nM) | relative viability (5000 nM) |
| --- | --- | --- | --- | --- | --- | --- | --- | --- | --- |
| COc1cc2ncnc(-n3nc(-c4ccccn4)nc3N)c2cc1OC | 0.763 | 0.922 | 0.947 | 0.333 | 0.867 | 0.682 | 0.86 | 0.779 | 0.693 |
| CN(C)c1ccc(-c2nc3ncc(Cl)c(N4CCN(CC(=O)Nc5nccs5)CC4)c3[nH]2)cc1 | 0.927 | 0.956 | 0.965 | 1.03 | 0.888 | 0.874 | 0.752 | 0.343 | 0.0109 |
| CC1(C)C(=O)N(CCN2CCC(C(=O)c3ccc(F)cc3)CC2)c2ccccc21 | 0.811 | 0.867 | 0.935 | 0.814 | 0.783 | 0.841 | 0.813 | 0.675 | 0.537 |
| COc1ccc(-c2ccc3c(N4CCOCC4)nc(N4C[C@@H](C)O[C@@H](C)C4)nc3n2)cc1CO | 0.718 | 0.806 | 0.711 | 0.839 | 0.845 | 0.818 | 0.79 | 0.854 | 0.651 |

Continuation:

| SMILES | relative viability (0.0128 nM) | relative viability (0.064 nM) | relative viability (0.32 nM) | relative viability (1.6 nM) | relative viability (8 nM) | relative viability (40 nM) | relative viability (200 nM) | relative viability (1000 nM) | relative viability (5000 nM) |
| --- | --- | --- | --- | --- | --- | --- | --- | --- | --- |
| C[C@@H]1CCN(C(=O)CC#N)C[C@@H]1N(C)c1ncnc2[nH]ccc12 | 1.07 | 1.04 | 0.9 | 0.908 | 0.931 | 0.908 | 0.22 | 0.0694 | 0.0504 |
| C[C@@H]1CCO[C@H]2Cn3cc(C(=O)NCc4ccc(F)cc4F)c(=O)c(O)c3C(=O)N12 | 0.69 | 0.785 | 0.692 | 0.776 | 0.75 | 0.714 | 0.604 | 0.587 | 0.538 |
| C[C@@H]1CN(CC(=O)Nc2ccc3c(c2)Cc2cccc(-c4cc(=O)cc(N5CCOCC5)o4)c2S3)C[C@H](C)O1 | 0.947 | 1.18 | 1.08 | 1.02 | 0.832 | 0.662 | 0.838 | 0.631 | 0.164 |
| Cc1cc(Nc2cc(CN3CCOCC3)c3nc(C)c(Cc4ccc(Cl)cc4F)n3n2)n[nH]1 | 1.17 | 1.13 | 1.04 | 0.186 | 0.0414 | 0.0143 | 0.00702 | 0.00691 | 0.00558 |
| Cc1ccc(C(=O)N(CCCN)[C@@H](c2nc3cc(Cl)ccc3c(=O)n2Cc2ccccc2)C(C)C)cc1 | 0.807 | 0.778 | 0.799 | 0.78 | 0.241 | 0.158 | 0.145 | 0.145 | 0.0102 |
| Cc1ccc(CN2CCNCC2)cc1NC(=O)CNc1ccc(F)c(F)c1 | 0.235 | 0.372 | 0.484 | 1.72 | 1.85 | 0.0756 | 0.0808 | 0.0453 | 0.676 |
| Cc1cccc(-c2nn3c(c2-c2ccnc4ccc(C(N)=O)cc24)CCC3)n1 | 0.651 | 0.535 | 0.598 | 0.894 | 0.604 | 0.609 | 0.615 | 0.661 | 0.812 |
| Cc1ccccc1-n1c(Cn2cnc3c(N)ncnc32)nc2cccc(C)c2c1=O | 0.79 | 0.81 | 0.791 | 0.838 | 0.825 | 0.837 | 0.794 | 0.665 | 0.602 |
| Cc1cnc(-c2cnc(NCCNc3ccc(C#N)cn3)nc2-c2ccc(Cl)cc2Cl)[nH]1 | 1.03 | 0.999 | 0.999 | 1.04 | 1.03 | 0.911 | 0.892 | 0.0736 | 0.0127 |
| Cc1cnc(NC(=O)Nc2cc(Br)c(C)cc2OC[C@@H]2CNCCO2)cn1 | 0.99 | 0.926 | 0.96 | 0.813 | 0.58 | 0.622 | 0.277 | 0.0271 | 0.0175 |
| Cn1cc(-c2ccc3nnc(C(F)(F)c4ccc5ncccc5c4)n3n2)cn1 | 0.705 | 0.555 | 0.636 | 0.611 | 0.603 | 0.652 | 0.673 | 0.698 | 0.514 |
| Cn1cc(CNCC2CCN(c3ncc(C(=O)NO)cn3)CC2)c2ccccc21 | 0.619 | 0.854 | 0.79 | 0.795 | 0.449 | 0.0917 | 0.0131 | 0.0136 | 0.0109 |
| NC1(Cc2ccc(Cl)cc2)CCN(c2ncnc3[nH]ccc23)CC1 | 0.848 | 0.829 | 0.8 | 0.77 | 0.478 | 0.818 | 0.776 | 0.73 | 0.545 |
| NC1=N[C@@]2(c3cc(NC(=O)c4ccc(F)cn4)ccc3F)COC[C@H]2CS1 | 0.837 | 0.844 | 0.988 | 0.829 | 0.874 | 0.778 | 1.01 | 0.807 | 0.765 |
| Nc1nc(Nc2ccc(S(N)(=O)=O)cc2)nn1C(=O)c1c(F)cccc1F | 0.401 | 0.997 | 1.03 | 0.869 | 0.925 | 0.999 | 0.795 | 0.882 | 0.0864 |
| O=C(NOCC(O)CO)c1cc(Br)c(F)c(F)c1Nc1ccc(I)cc1F (stereo not given) | 0.794 | 0.845 | 0.814 | 0.844 | 0.815 | 0.806 | 0.854 | 0.618 | 0.446 |
| O=C(NOCC1CC1)c1ccc(F)c(F)c1Nc1ccc(I)cc1Cl | 0.619 | 0.799 | 0.741 | 0.716 | 0.705 | 0.661 | 0.706 | 0.412 | 0.0582 |
| O=C(NOC[C@H](O)CO)c1ccc(F)c(F)c1Nc1ccc(I)cc1F | 0.672 | 0.752 | 0.798 | 0.784 | 0.665 | 0.694 | 0.797 | 0.513 | 0.331 |
| O=C(c1ccc(F)cc1)N1CCC[C@H](c2nc(-c3ccc(F)cc3)no2)C1 | 0.666 | 0.789 | 0.569 | 0.821 | 0.683 | 0.597 | 0.501 | 0.589 | 0.394 |
| O=C1NC(=O)/C(=C/c2ccc3nccc(-c4ccncc4)c3c2)S1 | 0.846 | 0.855 | 0.878 | 0.917 | 0.804 | 0.859 | 0.842 | 0.775 | 0.334 |
| O=c1cc(-c2cccc3c2Sc2ccccc2S3)oc(N2CCOCC2)c1 | 0.817 | 0.775 | 0.818 | 0.898 | 0.801 | 0.771 | 0.721 | 0.676 | 0.238 |
| O=c1cc(N2CCOCC2)oc2c(-c3ccccc3)cccc12 | 0.869 | 0.892 | 1.01 | 0.864 | 0.605 | 0.559 | 0.735 | 0.869 | 0.61 |
| OCCn1cc(-c2cnc3nnn(Cc4ccc5ncccc5c4)c3n2)cn1 | 0.855 | 0.756 | 0.825 | 0.814 | 0.874 | 0.874 | 0.811 | 0.638 | 0.746 |
| c1ccc2c(-c3cnn4cc(-c5ccc(N6CCNCC6)cc5)cnc34)ccnc2c1 | 1.22 | 1.2 | 1.15 | 1.02 | 0.841 | 0.161 | 0.169 | 0.0639 | 0.00807 |
| c1ccc2c(CCNc3ccc(Nc4ccncc4)cc3)c[nH]c2c1 | 0.814 | 0.825 | 0.836 | 0.806 | 0.893 | 0.695 | 0.517 | 0.0504 | 0.0418 |

This is a noisy data set.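 Viability of TSC2-lost, immortalized human renal angiomyolipoma cells bearing an empty vector was measured by luminescent ATP assay, normalized to each plate's vehicle-treated wells, in low-serum medium, where TSC2-rescued cells do not grow.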
